Test results taken from PubChem BioAssay AID2685 (National Center for Advancing Translational Sciences (NCATS), 2010).
This is one part of the list. These are further read-outs of the screen, such as a control signal, another cell line or another target. No call is given for them. Compounds called inactive in the main read-out are mostly missing here. Words in brackets tell the shape of the fitted curve; partial curves, single points and poor fits give uncertain potencies.

Assay: qHTS Assay for Lipid Storage Modulators in Drosophila S3 Cells;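 on cell number change: cells counted by Cell Tracker Red CMTPX staining in the red channel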
Conditions: BODIPY lipid droplet fluorescence, 18-24 h; for cell number change: measured here: cell count max response, cells fed with added oleic acid
How it was run: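 Laser-scanning cytometry quantifies lipid droplet accumulation (500–530 nm total intensity; droplet/cell object ratio) in oleic acid-fed (400 uM added) Drosophila S3 cells treated with a concentration series. 20 uM Triacsin C defined 100% inhibition.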

[1] = measured here: lipid fluorescence (Fed channel) AC50, cells fed with added oleic acid
[2] = measured here: cell number channel AC50, cells fed with added oleic acid

CN(C)CCCN=Cc1c(O)n(CCc2ccccc2)c(=O)[nH]c1=O
cell number change: 8.36% | AC50 [1]: 0.0231 µM [falling, full curve, poor fit]

C=CCn1c(O)c(C(CC)=Nc2cccc(C(=O)O)c2)c(=O)[nH]c1=O
cell number change: -22.5% | AC50 [1]: 0.291 µM [falling, full curve]

COc1ccc(CCn2c(O)c(C=NCc3ccc4c(c3)OCO4)c(=O)[nH]c2=O)cc1OC
cell number change: -12.5% | AC50 [1]: 0.291 µM [rising, partial curve, poor fit]

COC(=O)C1=C(c2cccc(OCc3ccccc3)c2)C[C@@H]2CC[C@H]1N2C(=O)NCc1ccc(Cl)cc1
cell number change: -9.7% | AC50 [2]: 2.31 µM [falling, single point] | AC50 [1]: 29.1 µM [falling, single point]

CN(C)C(=O)Oc1ccc(OCc2cccc[n+]2C)cc1
cell number change: 6.44% | AC50 [1]: 16.4 µM [falling, single point]

CCN(CC)C1=NC(=[N+](CC)CC)c2ccccc21
AC50 [2]: 7.31 µM [rising, single point] | AC50 [1]: 1.46 µM [falling, full curve]

CN(C)c1nc(-c2ccccc2)[n+](C)s1
cell number change: 10.7%

CC(C(=O)Nc1ccc(Cl)cc1Cl)N1CC=C(c2ccccc2)CC1 (configuration not stated)
cell number change: -16.7% | AC50 [1]: 7.31 µM [falling, partial curve]

COc1cc(CNCCc2c[nH]c3ccccc23)cc(OC)c1
cell number change: -2.78% | AC50 [2]: 6.51 µM [rising, single point] | AC50 [1]: 6.51 µM [falling, single point]

Cc1ccc(Cn2cc(C=O)c(-c3ccc(C)cc3)n2)cc1
cell number change: -58.2% | AC50 [2]: 29.1 µM [falling, single point] | AC50 [1]: 29.1 µM [falling, single point]

COC(=O)c1ccc(-n2c(C)nc3ccccc3c2=O)cc1
cell number change: -13.2% | AC50 [2]: 0.366 µM [rising, partial curve]

COC(=O)C1=C(c2cccc(OCc3ccccc3)c2)C[C@@H]2CC[C@H]1N2C(=O)NC1CCN(Cc2ccccc2)CC1
cell number change: 6.69% | AC50 [1]: 0.00461 µM [rising, full curve, poor fit]

Cc1ccc(Cc2c(C)nc3nc(SCC(=O)N4CCC5(CC4)OCCO5)nn3c2C)cc1
cell number change: 16.9% | AC50 [2]: 0.82 µM [falling, full curve, poor fit] | AC50 [1]: 0.366 µM [falling, full curve]

O=C(Cn1cc(C(=O)c2ccccc2F)c2ccccc21)NCc1ccco1
cell number change: 185% | AC50 [2]: 7.31 µM [rising, partial curve]

OC(c1ccccc1)(c1ccccc1)C1CN2CCC1CC2 (configuration not stated)
cell number change: 28.3% | AC50 [2]: 0.103 µM [rising, full curve, poor fit] | AC50 [1]: 0.58 µM [rising, partial curve, poor fit]

CC1CCC(NCCc2ccc3c(c2)OCO3)CC1 (configuration not stated)
cell number change: -1.44%

CC(=O)C1(c2ccccc2)CCNCC1
cell number change: -11.4% | AC50 [2]: 6.51 µM [falling, partial curve] | AC50 [1]: 4.11 µM [falling, full curve]

N/C(=N\[N+](=O)[O-])N1CCN(C(=O)Oc2ccccc2)CC1
cell number change: -8.62% | AC50 [1]: 29.1 µM [rising, single point]

CC(=O)NC1CC2CCCC(C1)N2 (configuration not stated)
AC50 [2]: 3.66 µM [rising, partial curve, poor fit] | AC50 [1]: 4.61 µM [rising, partial curve]

CN(C)c1ccc(C(O)P(=O)(OCc2ccccc2)c2ccc(N(C)C)cc2)cc1 (configuration not stated)
AC50 [2]: 0.146 µM [rising, full curve, poor fit]

Cc1cccc(OCC(=O)N2CCN(Cc3ccc4c(c3)OCO4)CC2)c1
cell number change: -0.704%

N#Cc1ccccc1Cn1cc(C(=O)c2cccs2)c2ccccc21
cell number change: 46.4% | AC50 [2]: 1.46 µM [rising, partial curve] | AC50 [1]: 2.91 µM [rising, partial curve]

O=C(COc1ccccc1)Nc1ccc(Cl)cc1C(=O)c1ccccc1
cell number change: 10.4% | AC50 [1]: 0.411 µM [rising, full curve]

CCOc1cc2c(cc1OCC)-n1cccc1C(c1c(O)cccc1OC)NC2 (configuration not stated)
AC50 [2]: 3.66 µM [falling, single point] | AC50 [1]: 6.51 µM [falling, single point]

CC(C(=O)c1cn(C)c2ccccc12)c1ccccc1 (configuration not stated)
cell number change: 74.5%

CCOP(=O)(OCC)C(NC(=O)C(Cl)Cl)C(Cl)(Cl)Cl (configuration not stated)
cell number change: -25% | AC50 [1]: 29.1 µM [falling, single point]

CCOc1ccc(CC2C(=O)NC(=O)N(c3ccc(CC)cc3)C2=O)cc1 (configuration not stated)
cell number change: 21.5% | AC50 [1]: 18.4 µM [falling, partial curve]

O=C(CNC(=O)OCc1ccccc1)Nc1ccc(Br)cc1C(=O)c1ccccc1Cl
cell number change: -3.35%
